{
  "source": "patent US20130005644A1",
  "about": "“CYCLIC AGONISTS AND ANTAGONISTS OF C5A RECEPTORS AND G PROTEIN-COUPLED RECEPTORS” (PROMICS PTY LIMITED, priority 1997, published 2013)",
  "key": {"[1]": {"target": "T1, C5a receptor (Homo sapiens, UniProt P21730)", "T1 construct": "endogenous in cells; host or cells: fresh human polymorphonuclear leukocytes (PMNs), intact cells", "T1 sequence (P21730 1-350)": "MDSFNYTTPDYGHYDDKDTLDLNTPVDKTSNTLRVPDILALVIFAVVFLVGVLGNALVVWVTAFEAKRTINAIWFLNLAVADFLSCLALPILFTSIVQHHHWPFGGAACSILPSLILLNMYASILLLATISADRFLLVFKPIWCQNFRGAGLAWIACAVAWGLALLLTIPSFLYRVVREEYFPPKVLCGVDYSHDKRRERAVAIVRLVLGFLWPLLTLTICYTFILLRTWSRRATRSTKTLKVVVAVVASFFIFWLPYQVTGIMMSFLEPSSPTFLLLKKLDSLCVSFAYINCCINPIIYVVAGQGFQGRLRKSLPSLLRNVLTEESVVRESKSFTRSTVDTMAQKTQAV", "test": "Myeloperoxidase release from human PMNs mediated by 100 nM C5a (antagonist potency)", "format": "cell-based", "conditions": "50% inhibition of C5a (100 nM)-caused release of MPO from PMNs; mean ± SE"}, "[2]": {"target": "T2, C5aR (Homo sapiens, UniProt P21730)", "T2 construct": "endogenous in cells; host or cells: fresh human polymorphonuclear leukocytes (PMNs), intact cells", "T2 sequence (P21730 1-350)": "T1 sequence (P21730 1-350)", "test": "Receptor-binding assay: inhibition of 125I-C5a binding to intact human PMNs", "conditions": "50% inhibition in the binding of [125I]C5a to intact PMNs; mean ± SE"}},
  "note": "At least one peptide structure holds a part that was inferred or is arguable (an end, a ring closure or a residue). Where a SMILES comes first, the peptide text is derived from it. Bridges are numbered along the chain shown (N, C = ends). [ ]: non-standard residue; d: D form. dCha = N[C@H](CC1CCCCC1)C(=O)O",
  "data": [
    {"compound": "CC(=O)N[C@@H](Cc1ccccc1)C(=O)N[C@H]1CCCCNC(=O)[C@@H](CCCNC(=N)N)NC(=O)[C@H](Cc2c[nH]c3ccccc23)NC(=O)[C@@H](CC2CCCCC2)NC(=O)[C@H](CCCCN)NC1=O", "note": "[Compound 21, AcF-[KKdChaWr]] (Ac-FKK[dCha]W[dR]; lactam 2-C (inferred))", "values": [
      {"measurement": "pD2 ± SE (antagonist potency)", "setting": "[1]", "result": 4.88},
      {"measurement": "pD2 ± SE (binding)", "setting": "[2]", "result": "3.94 ± 0.4"}
    ]}
  ]
}
